Source: patent US6143715A, “Hepatitis C inhibitor peptide analogues” (priority 1998, dated 2000)
At least one compound was matched to its structure with a doubt left. Starred links: 1 amine or outer side, 2 acyl side, 3 side chain; linkers in the order of their positions; H or OH if unused. Non-standard residues stand in square brackets, D forms with d. Residues, ends and D or L forms follow the SMILES beside them. ξ: configuration not given here. *: point of attachment. NH(1S-phenylethyl) = C[C@H](N*)c1ccccc1; Hyp = O=C(O)[C@@H]1C[C@@H](O)CN1; X3 = CC(C)CCN(N[*:1])C(=O)[*:2]; ξNva = CCCC(N)C(=O)O; Bn = c1ccc(C*)cc1; CF3 = FC(F)(F)*

Biological target: T1, human leukocyte elastase (Homo sapiens, UniProt P08246)
T1 sequence (P08246 30-267): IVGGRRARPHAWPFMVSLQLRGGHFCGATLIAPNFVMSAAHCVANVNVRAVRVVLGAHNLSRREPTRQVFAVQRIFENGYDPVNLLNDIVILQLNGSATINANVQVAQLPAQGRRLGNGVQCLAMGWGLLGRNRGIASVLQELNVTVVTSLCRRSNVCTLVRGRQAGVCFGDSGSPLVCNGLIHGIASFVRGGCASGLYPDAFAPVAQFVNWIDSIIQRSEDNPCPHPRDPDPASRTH
Experiment: Specificity assay, human leukocyte elastase (pNA substrate)
Assay type: biochemical
Conditions: read-out: HLE: concentration required to obtain 50% inhibition in the human leukocyte elastase assay; 1 h enzyme-inhibitor pre-incubation at 30° C., Succ-AAV-pNA
Method: The specificity of the compounds was determined against a variety of serine proteases: human leukocyte elastase, porcine pancreatic elastase and bovine pancreatic α-chymotrypsin and one cysteine protease: human liver cathepsin B. In all cases a 96-well plate format protocol using a […] p-nitroanilide (pNA) substrate specific for each enzyme was used. Each assay included a 1 h enzyme-inhibitor pre-incubation at 30° C. followed by addition of substrate and hydrolysis to ≈30% conversion as measured on a UV Thermomax® microplate reader. Substrate concentrations were kept as low as possible compared to KM to reduce substrate competition. […] The final conditions for each assay were as follows:
50 mM Tris-HCl pH 8, 0.5 M Na2 SO4, 50 mM NaCl, 0.1 mM EDTA, 3% DMSO, 0.01% Tween-20 with;
All other specificity assays were performed in a similar fashion.
The percentage of inhibition was calculated using the formula:
[1-(UVinh -UVblank)/(UVctl -UVblank))]×100

Row | SMILES | IC50 [µM]
1 | CC[C@H](C)[C@H](NC(=O)[C@@H](CCC(=O)O)NC(=O)[C@H](CC(=O)O)NC(C)=O)C(=O)N[C@H](C(=O)N1C[C@H](OCc2ccccc2)C[C@H]1C(=O)NN(CCC(C)C)C(=O)N[C@@H](C)c1ccccc1)C(C)C [Compound 222] (Ac-D[dE]IV[Hyp](Bn)[X3]-{NH(1S-phenylethyl)}) | > 300
2 | CCCC(NC(=O)[C@@H]1CCCN1C(=O)[C@@H](NC(=O)[C@@H](NC(=O)[C@@H](CC(=O)O)NC(=O)[C@H](CC(=O)O)NC(C)=O)[C@@H](C)CC)C(C)C)C(=O)C(F)(F)F (some centres unmarked) [Compound 114] (Ac-D[dD]IVP[ξNva]-CF3) | 0.05
